# Results: patent US12428650B2, “Corn event 5307” (priority 2008, dated 2025)
# B1: PMI: phosphomannose isomerase enzyme, selectable marker allowing the plant to utilize mannose (protein, UniProt P00946 1-391, looked up)
# Mannose-6-phosphate isomerase: MQKLINSVQNYAWGSKTALTELYGMENPSSQPMAELWMGAHPKSSSRVQNAAGDIVSLRDVIESDKSTLLGEAVAKRFGELPFLFKVLCAAQPLSIQVHPNKHNSEIGFAKENAAGIPMDAAERNYKDPNHKPELVFALTPFLAMNAFREFSEIVSLLQPVAGAHPAIAHFLQQPDAERLSELFASLLNMQGEEKSRALAILKSALDSQQGEPWQTIRLISEFYPEDSGLFSPLLLNVVKLNPGEAMFLFAETPHAYLQGVALEVMANSDNVLRAGLTPKYIDIPELVANVKFEAKPANQLLTQPVKQGAELDFPIPVDDFAFSLHDLSDKETTISQQSAAILFCVEGDATLWKGSQQLQLKPGESAFIAANESPVTVKGHGRLARVYNKL
# Assay: PMI quantification by ELISA in event 5307 plant tissues
# Parameters: species or system Zea mays
# Conditions: event 5307 plants
molecule,measurement,setting,value
B1,mean PMI level in leaves,"across all plant stages, leaves, dry wt.",1.5-2.3 μg/g dry wt.
same,mean PMI level in roots,"across all plant stages, dry wt.",0.9-1.5 μg/g dry wt.
same,mean PMI level in roots,"across all plant stages, fresh wt.",0.1-0.2 μg/g fresh wt.
same,mean PMI level in pollen,dry wt.,17.1-31.1 μg/g dry wt.
same,mean PMI level in pollen,fresh wt.,16.7-30.6 μg/g fresh wt.
